Results deposited as PubChem BioAssay AID1259425 (University of Nebraska Medical Center, 2018).
Here is a random part of about 14,000 reagents. Further read-outs or replicates are left out here. The record does not give: the time to read-out.

Test: 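Seek colon cancer weak points whose silencing resembles KSR1 loss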 (primary screen)
Cell system: HCT116 human colon cancer cells
Reagent: siRNA pool against human genes, 50 nM siRNA
Measured: 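After 50 nM siRNA pool, branched-DNA assay measures six marker transcripts per well, minus blank, normalised to the geometric mean of two housekeeping transcripts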
Scale: BNIP3L mRNA: higher = more BNIP3L transcript after knockdown; NDRG1 mRNA: higher = more NDRG1 transcript after knockdown

Which result is listed for PCYOX1L (prenylcysteine oxidase 1 like)?
BNIP3L mRNA, set 1: 0.0759; NDRG1 mRNA, set 1: 0.276

Which result is listed for MTFP1 (mitochondrial fission process 1)?
BNIP3L mRNA, set 1: 0.0645; NDRG1 mRNA, set 1: 0.0811

What did the screen give for VNN3P (vanin 3, pseudogene)?
BNIP3L mRNA, set 1: 0.0884; NDRG1 mRNA, set 1: 0.325

How did the screen score NCAPG2 (non-SMC condensin II complex subunit G2)?
BNIP3L mRNA, set 1: 0.111; NDRG1 mRNA, set 1: 0.109

For TNFRSF1B (TNF receptor superfamily member 1B), what does the deposit list?
BNIP3L mRNA, set 1: 0.107; NDRG1 mRNA, set 1: 0.339

For COL4A2 (collagen type IV alpha 2 chain), what was measured?
BNIP3L mRNA, set 1: 0.114; NDRG1 mRNA, set 1: 0.242

Which result is listed for SLC67A1?
BNIP3L mRNA, set 1: 0.0666; NDRG1 mRNA, set 1: 0.0706

For AXL (AXL receptor tyrosine kinase), how do the results read?
BNIP3L mRNA, set 1: 0.074; NDRG1 mRNA, set 1: 0.15

For GPX2 (glutathione peroxidase 2), what was measured?
BNIP3L mRNA, set 1: 0.0871; NDRG1 mRNA, set 1: 0.144

With PDC (phosducin), how do the results read?
BNIP3L mRNA, set 1: 0.116; NDRG1 mRNA, set 1: 0.2

Which result is listed for FBXW11 (F-box and WD repeat domain containing 11)?
BNIP3L mRNA, set 1: 0.0609; NDRG1 mRNA, set 1: 0.0858

Which result is listed for TOPORS?
BNIP3L mRNA, set 1: 0.0961; NDRG1 mRNA, set 1: 0.081

With G0S2 (G0/G1 switch 2), how do the results read?
BNIP3L mRNA, set 1: 0.149; NDRG1 mRNA, set 1: 0.126

Which result is listed for USP20 (ubiquitin specific peptidase 20)?
BNIP3L mRNA, set 1: 0.121; NDRG1 mRNA, set 1: 0.0784

What is on record for F13A1 (coagulation factor XIII A chain)?
BNIP3L mRNA, set 1: 0.138; NDRG1 mRNA, set 1: 0.19

For ZNF384 (zinc finger protein 384), what does the deposit list?
BNIP3L mRNA, set 1: 0.0792; NDRG1 mRNA, set 1: 0.182

How did the screen score FER (FER tyrosine kinase)?
BNIP3L mRNA, set 1: 0.302; NDRG1 mRNA, set 1: 0.103

With DDX19A (DEAD-box helicase 19A), what was measured?
BNIP3L mRNA, set 1: 0.0944; NDRG1 mRNA, set 1: 0.238

For GPBP1L1 (GC-rich promoter binding protein 1 like 1), what does the deposit list?
BNIP3L mRNA, set 1: 0.101; NDRG1 mRNA, set 1: 0.177

Targets above whose gene name starts with P or p (2):
PCYOX1L (prenylcysteine oxidase 1 like) → BNIP3L mRNA, set 1 = 0.0759; NDRG1 mRNA, set 1 = 0.276
PDC (phosducin) → BNIP3L mRNA, set 1 = 0.116; NDRG1 mRNA, set 1 = 0.2
